In patent US6743640B2, “Fluorescent polymer-QTL approach to biosensing” (priority 2000, dated 2004):
At least one read-out could not be matched to a standard name with certainty.

Protein sequences, listed by entry. Tags and fused reporters are not part of them. Residues count along the entry.
UniProt P02701, 25-152, species assumed: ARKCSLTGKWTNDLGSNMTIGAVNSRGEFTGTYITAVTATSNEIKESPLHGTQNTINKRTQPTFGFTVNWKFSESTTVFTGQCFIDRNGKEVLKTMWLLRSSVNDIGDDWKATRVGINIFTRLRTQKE

Molecular target: avidin (Gallus gallus, UniProt P02701)
Test: Unquenching of quenched polymer 1 on addition of avidin
Details: supported polymer 1 first quenched by the named quencher

## anthraquinone disulfonate [anthraquinone 5]
  fluorescence recovery on addition of avidin, polystyrene-supported polymer 1: no fluorescence recovery
